Some of the results follow.
How the values were obtained:
Assay in all cases: log2 fold change, soluble protein after heating vs DMSO (PISA); higher = thermal stabilisation; K562 cells, 10 uM, 30 min; active = over 0.2 and 3.5 SD of the protein, either way, in both replicates (recomputed)
[1] = compound: CC1=C(C=C(C=C1)NC(=O)C2=CC(=CC=C2)C(C)(C)C#N)NC3=CC4=C(C=C3)N=CN(C4=O)C
In short: (§1)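 Aliquots of K562 cells (2×10^6 cells/mL) treated with 10 μM compound for 30 min were heated for 3 min over 48°C-58°C. After pooling and extraction in PBS with 0.5% NP-40 at 4°C, soluble protein from a 21,000xg, 90 min spin was quantified by TMTpro 16plex LC-MS/MS with channel sums equalised. Thermal stability is expressed against control samples, from duplicates, as a log2 fold change.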

Amino acid sequences for entries named in this document (tags omitted). A change or cut given only in a name is not applied to a line headed by its entry.
UniProt P02656: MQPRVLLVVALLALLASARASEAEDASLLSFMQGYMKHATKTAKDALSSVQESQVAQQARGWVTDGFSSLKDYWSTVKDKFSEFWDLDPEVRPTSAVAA
UniProt P84077: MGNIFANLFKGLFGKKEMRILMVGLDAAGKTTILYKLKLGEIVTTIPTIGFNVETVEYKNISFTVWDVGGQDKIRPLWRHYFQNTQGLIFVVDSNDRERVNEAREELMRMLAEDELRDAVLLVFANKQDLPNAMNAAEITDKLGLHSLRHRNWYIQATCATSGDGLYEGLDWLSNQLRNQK
UniProt P15144: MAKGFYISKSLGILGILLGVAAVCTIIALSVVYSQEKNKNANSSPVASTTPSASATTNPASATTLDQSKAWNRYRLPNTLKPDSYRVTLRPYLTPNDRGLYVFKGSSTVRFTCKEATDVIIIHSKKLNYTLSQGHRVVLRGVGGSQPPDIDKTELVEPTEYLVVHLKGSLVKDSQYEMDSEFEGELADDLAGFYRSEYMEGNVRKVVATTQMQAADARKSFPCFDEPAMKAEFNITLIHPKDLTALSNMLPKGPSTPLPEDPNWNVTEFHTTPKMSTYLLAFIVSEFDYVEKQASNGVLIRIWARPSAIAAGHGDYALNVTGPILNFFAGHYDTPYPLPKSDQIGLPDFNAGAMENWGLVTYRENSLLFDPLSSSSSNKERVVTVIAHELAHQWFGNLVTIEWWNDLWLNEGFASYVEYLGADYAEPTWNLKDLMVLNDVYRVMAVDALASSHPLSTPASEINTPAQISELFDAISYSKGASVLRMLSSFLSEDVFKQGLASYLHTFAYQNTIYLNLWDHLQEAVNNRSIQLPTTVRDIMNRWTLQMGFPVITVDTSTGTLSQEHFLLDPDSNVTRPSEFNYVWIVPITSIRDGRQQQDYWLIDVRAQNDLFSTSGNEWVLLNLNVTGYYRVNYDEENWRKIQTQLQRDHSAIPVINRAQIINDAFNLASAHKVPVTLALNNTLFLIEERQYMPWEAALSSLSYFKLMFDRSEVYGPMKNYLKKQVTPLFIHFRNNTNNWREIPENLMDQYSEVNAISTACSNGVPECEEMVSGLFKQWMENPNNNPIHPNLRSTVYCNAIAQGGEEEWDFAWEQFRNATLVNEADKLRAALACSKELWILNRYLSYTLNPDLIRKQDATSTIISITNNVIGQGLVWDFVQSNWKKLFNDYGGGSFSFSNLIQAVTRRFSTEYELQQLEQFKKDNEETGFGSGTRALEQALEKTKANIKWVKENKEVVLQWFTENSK
UniProt Q96P48: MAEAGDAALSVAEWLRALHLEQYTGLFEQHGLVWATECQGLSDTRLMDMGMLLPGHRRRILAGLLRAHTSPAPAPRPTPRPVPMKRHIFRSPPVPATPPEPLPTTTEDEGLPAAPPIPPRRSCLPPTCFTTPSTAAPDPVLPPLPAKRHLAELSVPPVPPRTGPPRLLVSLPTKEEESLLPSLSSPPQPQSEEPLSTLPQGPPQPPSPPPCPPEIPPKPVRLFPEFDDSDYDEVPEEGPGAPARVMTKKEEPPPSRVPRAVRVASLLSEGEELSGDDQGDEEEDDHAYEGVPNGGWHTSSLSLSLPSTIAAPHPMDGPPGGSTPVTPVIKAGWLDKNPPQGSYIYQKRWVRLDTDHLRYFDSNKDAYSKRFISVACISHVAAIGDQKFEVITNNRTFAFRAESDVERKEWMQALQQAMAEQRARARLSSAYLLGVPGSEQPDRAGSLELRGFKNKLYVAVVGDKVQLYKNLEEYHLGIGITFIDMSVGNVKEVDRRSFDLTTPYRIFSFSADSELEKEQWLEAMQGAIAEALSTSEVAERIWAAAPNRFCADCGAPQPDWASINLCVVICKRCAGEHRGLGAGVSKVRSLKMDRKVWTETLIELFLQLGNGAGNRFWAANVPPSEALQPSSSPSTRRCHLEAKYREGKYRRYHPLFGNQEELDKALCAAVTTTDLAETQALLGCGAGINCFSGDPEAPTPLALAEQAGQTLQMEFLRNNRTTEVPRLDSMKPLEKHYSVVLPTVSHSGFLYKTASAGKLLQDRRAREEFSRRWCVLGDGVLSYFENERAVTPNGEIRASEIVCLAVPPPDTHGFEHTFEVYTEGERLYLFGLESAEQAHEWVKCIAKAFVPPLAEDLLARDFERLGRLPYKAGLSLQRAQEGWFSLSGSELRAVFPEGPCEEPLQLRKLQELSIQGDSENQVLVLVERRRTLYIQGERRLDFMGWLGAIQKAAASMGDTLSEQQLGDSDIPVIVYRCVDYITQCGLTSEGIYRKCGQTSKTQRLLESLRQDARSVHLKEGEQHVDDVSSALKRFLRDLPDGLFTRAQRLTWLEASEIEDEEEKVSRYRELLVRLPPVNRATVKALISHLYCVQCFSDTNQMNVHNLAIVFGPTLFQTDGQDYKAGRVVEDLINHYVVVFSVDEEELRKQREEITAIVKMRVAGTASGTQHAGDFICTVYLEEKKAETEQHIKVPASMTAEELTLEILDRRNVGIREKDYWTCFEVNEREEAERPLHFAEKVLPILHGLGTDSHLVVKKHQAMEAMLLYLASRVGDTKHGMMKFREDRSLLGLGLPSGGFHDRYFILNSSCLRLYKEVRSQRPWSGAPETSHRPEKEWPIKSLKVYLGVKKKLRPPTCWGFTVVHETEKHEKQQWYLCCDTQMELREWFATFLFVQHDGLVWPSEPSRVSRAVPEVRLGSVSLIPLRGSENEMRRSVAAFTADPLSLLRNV
UniProt P27695, whole entry, looked up: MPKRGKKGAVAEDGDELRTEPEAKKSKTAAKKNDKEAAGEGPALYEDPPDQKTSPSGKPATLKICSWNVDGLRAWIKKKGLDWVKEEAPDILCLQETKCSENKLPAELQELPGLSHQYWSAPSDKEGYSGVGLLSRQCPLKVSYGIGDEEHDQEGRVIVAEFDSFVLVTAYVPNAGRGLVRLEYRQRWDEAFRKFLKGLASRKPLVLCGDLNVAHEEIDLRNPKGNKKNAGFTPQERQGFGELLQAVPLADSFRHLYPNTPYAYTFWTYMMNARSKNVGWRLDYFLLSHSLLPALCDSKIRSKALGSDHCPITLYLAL
UniProt Q9P2R3: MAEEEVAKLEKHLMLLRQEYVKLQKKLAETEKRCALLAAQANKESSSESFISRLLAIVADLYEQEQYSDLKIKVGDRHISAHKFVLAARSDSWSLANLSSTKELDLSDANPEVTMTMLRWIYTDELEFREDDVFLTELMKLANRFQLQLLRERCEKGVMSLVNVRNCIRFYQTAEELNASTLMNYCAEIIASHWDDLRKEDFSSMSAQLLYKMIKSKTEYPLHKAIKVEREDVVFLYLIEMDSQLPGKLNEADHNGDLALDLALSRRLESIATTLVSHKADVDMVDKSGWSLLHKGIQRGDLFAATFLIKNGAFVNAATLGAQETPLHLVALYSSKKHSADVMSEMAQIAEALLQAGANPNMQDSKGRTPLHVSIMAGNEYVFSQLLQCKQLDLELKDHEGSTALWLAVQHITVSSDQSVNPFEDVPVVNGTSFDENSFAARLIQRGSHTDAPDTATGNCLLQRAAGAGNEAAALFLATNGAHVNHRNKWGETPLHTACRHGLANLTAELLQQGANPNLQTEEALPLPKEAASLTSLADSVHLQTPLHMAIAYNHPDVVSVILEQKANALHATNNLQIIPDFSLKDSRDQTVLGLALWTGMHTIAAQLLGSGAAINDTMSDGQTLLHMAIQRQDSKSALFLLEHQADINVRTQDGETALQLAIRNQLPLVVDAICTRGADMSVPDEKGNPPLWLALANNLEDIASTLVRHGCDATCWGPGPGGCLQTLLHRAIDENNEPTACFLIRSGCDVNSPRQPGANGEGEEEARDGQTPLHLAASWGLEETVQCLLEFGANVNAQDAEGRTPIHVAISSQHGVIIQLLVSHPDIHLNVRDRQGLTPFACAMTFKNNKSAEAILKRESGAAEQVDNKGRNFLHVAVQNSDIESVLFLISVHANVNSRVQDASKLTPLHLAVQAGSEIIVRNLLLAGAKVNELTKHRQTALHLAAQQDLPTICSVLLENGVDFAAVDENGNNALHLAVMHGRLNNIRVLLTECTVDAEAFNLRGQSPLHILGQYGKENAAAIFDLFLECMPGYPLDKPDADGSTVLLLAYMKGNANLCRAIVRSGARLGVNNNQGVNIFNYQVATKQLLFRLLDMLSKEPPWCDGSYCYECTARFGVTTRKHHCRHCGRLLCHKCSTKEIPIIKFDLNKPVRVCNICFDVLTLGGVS
UniProt P02647, whole entry, looked up: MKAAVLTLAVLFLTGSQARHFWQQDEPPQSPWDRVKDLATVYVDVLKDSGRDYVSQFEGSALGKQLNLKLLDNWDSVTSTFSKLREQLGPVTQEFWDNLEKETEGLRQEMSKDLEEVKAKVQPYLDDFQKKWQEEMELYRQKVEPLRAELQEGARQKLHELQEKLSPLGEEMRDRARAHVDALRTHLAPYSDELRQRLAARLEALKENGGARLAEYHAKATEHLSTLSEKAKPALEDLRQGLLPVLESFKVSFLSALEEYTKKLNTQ
UniProt Q6NXT1: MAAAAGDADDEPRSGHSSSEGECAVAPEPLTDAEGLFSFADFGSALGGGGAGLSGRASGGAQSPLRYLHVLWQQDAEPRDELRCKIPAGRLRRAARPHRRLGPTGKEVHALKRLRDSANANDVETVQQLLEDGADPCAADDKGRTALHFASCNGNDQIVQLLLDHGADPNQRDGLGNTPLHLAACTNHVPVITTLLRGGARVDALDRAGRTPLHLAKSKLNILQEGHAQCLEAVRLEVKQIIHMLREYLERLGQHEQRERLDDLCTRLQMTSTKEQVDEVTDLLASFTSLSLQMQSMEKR
UniProt Q9BQD7: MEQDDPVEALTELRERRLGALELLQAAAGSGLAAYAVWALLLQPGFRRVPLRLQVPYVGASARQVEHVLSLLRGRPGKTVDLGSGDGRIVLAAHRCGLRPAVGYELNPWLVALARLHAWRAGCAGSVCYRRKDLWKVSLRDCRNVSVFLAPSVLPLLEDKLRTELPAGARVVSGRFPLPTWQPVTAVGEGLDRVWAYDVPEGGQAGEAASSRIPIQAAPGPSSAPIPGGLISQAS
UniProt Q92572: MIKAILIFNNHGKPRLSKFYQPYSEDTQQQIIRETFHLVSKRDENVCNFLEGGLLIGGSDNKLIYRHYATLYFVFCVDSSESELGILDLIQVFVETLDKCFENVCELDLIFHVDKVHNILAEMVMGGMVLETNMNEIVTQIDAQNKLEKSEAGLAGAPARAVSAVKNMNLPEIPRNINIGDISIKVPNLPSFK
UniProt Q4LE39: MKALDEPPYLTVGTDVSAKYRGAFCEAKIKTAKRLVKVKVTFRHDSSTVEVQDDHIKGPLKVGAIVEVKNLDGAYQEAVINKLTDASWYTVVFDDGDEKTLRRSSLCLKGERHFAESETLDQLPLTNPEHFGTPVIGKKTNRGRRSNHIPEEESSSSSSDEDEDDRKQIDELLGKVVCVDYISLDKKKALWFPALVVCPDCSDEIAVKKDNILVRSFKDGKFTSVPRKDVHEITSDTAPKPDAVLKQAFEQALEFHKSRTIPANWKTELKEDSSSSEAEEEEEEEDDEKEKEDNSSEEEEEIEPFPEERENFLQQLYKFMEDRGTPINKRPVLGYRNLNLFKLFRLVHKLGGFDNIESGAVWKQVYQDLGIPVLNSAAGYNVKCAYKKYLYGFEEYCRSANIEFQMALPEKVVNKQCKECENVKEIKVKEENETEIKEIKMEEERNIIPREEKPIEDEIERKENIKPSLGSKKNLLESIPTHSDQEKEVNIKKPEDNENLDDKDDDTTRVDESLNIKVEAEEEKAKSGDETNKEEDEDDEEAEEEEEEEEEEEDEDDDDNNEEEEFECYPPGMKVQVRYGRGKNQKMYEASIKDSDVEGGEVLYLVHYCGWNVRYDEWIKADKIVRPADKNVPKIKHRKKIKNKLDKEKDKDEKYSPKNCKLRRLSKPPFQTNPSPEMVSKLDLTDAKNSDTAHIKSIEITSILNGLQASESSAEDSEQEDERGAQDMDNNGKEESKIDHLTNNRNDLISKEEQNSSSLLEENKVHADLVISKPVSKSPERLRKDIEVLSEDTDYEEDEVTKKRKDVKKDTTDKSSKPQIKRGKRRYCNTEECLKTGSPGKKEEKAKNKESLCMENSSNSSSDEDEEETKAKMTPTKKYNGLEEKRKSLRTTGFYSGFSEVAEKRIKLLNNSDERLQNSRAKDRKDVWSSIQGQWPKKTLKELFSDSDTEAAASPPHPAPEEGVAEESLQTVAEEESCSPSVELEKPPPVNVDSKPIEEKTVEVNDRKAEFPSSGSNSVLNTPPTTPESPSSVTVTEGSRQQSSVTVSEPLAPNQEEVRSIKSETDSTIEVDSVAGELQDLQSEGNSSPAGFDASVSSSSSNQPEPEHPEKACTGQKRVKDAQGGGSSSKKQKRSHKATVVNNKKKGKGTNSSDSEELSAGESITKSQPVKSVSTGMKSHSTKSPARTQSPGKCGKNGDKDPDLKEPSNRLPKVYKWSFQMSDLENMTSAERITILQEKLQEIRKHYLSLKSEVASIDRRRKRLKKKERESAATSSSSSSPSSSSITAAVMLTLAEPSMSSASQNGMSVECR

[2] = compound: CC1=C(C=C(C=C1)NC(=O)C2=CC(=CC=C2)N(C)C)NC(=O)C3=CC=C(C=C3)O
In short: as §1

[3] = compound: CC1=CC=C(C=C1)SC2=C3C=C(SC3=CN=C2)C(=O)N
In short: as §1

[4] = compound: CC1=NC(=CC=C1)C2=C(N=C(N2)C(C)(C)C)C3=CC4=NC=CN=C4C=C3
In short: as §1

Nexturastat A = compound: CCCCN(Cc1ccc(C(=O)NO)cc1)C(=O)Nc1ccccc1 [Nexturastat A]
In short: as §1

vemurafenib = compound: CCCS(=O)(=O)Nc1ccc(F)c(C(=O)c2c[nH]c3ncc(-c4ccc(Cl)cc4)cc23)c1F [vemurafenib]
In short: as §1

[5] = compound: CCCS(=O)(=O)Nc1ccc(F)c(C(=O)c2c[nH]c3ncc(Cl)cc23)c1F
In short: as §1

[6] = compound: CCCc1cc(C)[nH]c(=O)c1CNC(=O)c1cc(-c2ccnc(N3CCN(C)CC3)c2)cc2c1cnn2C(C)C
In short: as §1

givinostat = compound: CCN(CC)Cc1ccc2cc(COC(=O)Nc3ccc(C(=O)NO)cc3)ccc2c1 [givinostat]
In short: as §1

barasertib = compound: CCN(CCCOc1ccc2c(Nc3cc(CC(=O)Nc4cccc(F)c4)[nH]n3)ncnc2c1)CCOP(=O)(O)O [barasertib]
In short: as §1

Measured: log2 fold change

ANO6 isoform 2 (UniProt Q4KMQ2)
inactive: [1] -0.042 | [2] -0.003 | [3] 0.023 | [4] 0.03 | Nexturastat A -0.063 | vemurafenib -0.028 | [5] 0.023 | [6] -0.056 | givinostat -0.014 | barasertib -0.014

AP5M1 (UniProt Q9H0R1)
inactive: [1] 0.075 | [2] -0.09 | [3] 0.055 | [4] 0.119 | Nexturastat A 0.059 | vemurafenib -0.375 | [5] -0.003 | [6] -0.067 | barasertib 0.061

APOC3 (UniProt P02656)
inactive: [1] 0.182 | [2] -0.114 | [3] 0.092 | Nexturastat A -0.348 | [5] -0.2 | [6] -0.076 | barasertib -0.051

AP2M1 (UniProt Q96CW1)
inactive: [1] 0.022 | [2] -0.019 | [3] -0.023 | [4] 0.002 | Nexturastat A 0.073 | vemurafenib -0.006 | [5] 0.014 | [6] -0.049 | givinostat 0.031 | barasertib -0.074

APP (UniProt P05067)
inactive: [1] 0 | [2] -0.051 | [3] -0.086 | Nexturastat A 0.106 | [5] 0.077 | [6] -0.033

ANAPC4 isoform 3 (UniProt Q9UJX5)
inactive: [1] 0.015 | [2] 0.012 | [3] -0.034 | [4] -0.006 | Nexturastat A 0.057 | vemurafenib -0.053 | [5] 0.061 | [6] 0.026 | givinostat -0.009 | barasertib -0.007

ARF1 (UniProt P84077)
inactive: [1] 0.023 | [2] 0.005 | [3] 0.038 | [4] -0.019 | Nexturastat A -0.173 | vemurafenib -0.043 | [5] -0.004 | [6] 0.016 | givinostat -0.132 | barasertib 0.018

APOBEC3G (UniProt Q9HC16)
inactive: [1] -0.019 | [2] 0.069 | [3] -0.064 | [4] -0.014 | Nexturastat A 0.172 | vemurafenib 0.069 | [5] -0.083 | [6] 0.051 | givinostat 0.129 | barasertib 0.019

ANPEP (UniProt P15144)
inactive: [1] -0.046 | [2] 0.003 | [3] -0.163 | [4] 0.004 | [5] -0.024 | [6] -0.028 | givinostat -0.008

ARAP1 (UniProt Q96P48)
inactive: [1] 0.01 | [2] -0.05 | [3] -0.018 | [4] -0.005 | Nexturastat A 0.351 | [5] 0.079 | [6] 0.202 | barasertib 0.05

ARHGAP4 isoform 2 (UniProt P98171)
inactive: [1] -0.14 | [2] 0.039 | [3] -0.08 | vemurafenib 0.047 | [5] -0.049 | [6] -0.194 | givinostat 0.034 | barasertib -0.466

ANXA7 (UniProt P20073)
inactive: [1] 0.032 | [2] -0.03 | [3] 0.015 | [4] 0.052 | Nexturastat A -0.041 | vemurafenib 0.049 | [5] 0.046 | [6] -0.054 | givinostat 0.009 | barasertib -0.001

ANKRD17 (UniProt O75179)
inactive: [1] -0.083 | [2] -0.009 | [3] -0.001 | [4] -0.056 | Nexturastat A 0.24 | vemurafenib -0.214 | [5] 0 | [6] -0.006 | givinostat 0.19 | barasertib 0.038

ARHGEF12 (UniProt Q9NZN5)
inactive: [1] 0.02 | [2] 0.091 | [3] -0.025 | [4] -0.107 | Nexturastat A 0.344 | vemurafenib -0.083 | [5] -0.038 | [6] 0.121 | givinostat 0.103 | barasertib 0.248

APEX1 (UniProt P27695)
inactive: [1] 0.045 | [2] -0.071 | [3] 0.03 | [4] 0.068 | Nexturastat A -0.038 | vemurafenib 0.039 | [5] 0.065 | [6] 0.101 | givinostat 0.001 | barasertib 0.021

ARID1A (UniProt O14497)
inactive: [1] 0.292 | [2] -0.23 | [3] 0.188 | [4] 0.258 | Nexturastat A -0.127 | vemurafenib 0.128 | [5] -0.142 | [6] -0.033 | givinostat 0.136 | barasertib 0.099

ANKFY1 isoform 4 (UniProt Q9P2R3)
inactive: [1] -0.105 | [2] 0 | [3] -0.007 | [4] 0.09 | Nexturastat A 0.297 | vemurafenib -0.065 | [5] 0.134 | [6] 0.153 | givinostat 0.067 | barasertib -0.012

Copied from above (2 entries):
ANKRD17 (UniProt O75179)
inactive: [1] -0.083 | [2] -0.009 | [3] -0.001 | [4] -0.056 | Nexturastat A 0.24 | vemurafenib -0.214 | [5] 0 | [6] -0.006 | givinostat 0.19 | barasertib 0.038

ARHGEF12 (UniProt Q9NZN5)
inactive: [1] 0.02 | [2] 0.091 | [3] -0.025 | [4] -0.107 | Nexturastat A 0.344 | vemurafenib -0.083 | [5] -0.038 | [6] 0.121 | givinostat 0.103 | barasertib 0.248

Next entries:

ARHGAP6 (UniProt O43182)
inactive: [1] -0.121 | [2] 0.041 | [4] -0.327 | Nexturastat A 0.341 | [6] 0.15

APPL1 (UniProt Q9UKG1)
inactive: [1] 0.012 | [2] 0.008 | [3] 0.035 | [4] 0.015 | Nexturastat A -0.032 | vemurafenib 0.066 | [5] 0.017 | [6] -0.033 | givinostat 0.039 | barasertib 0.02

ANK2 (UniProt Q01484)
inactive: [1] -0.11 | [2] -0.031 | [3] 0.019 | [4] 0.026 | vemurafenib -0.026 | [5] 0.012 | [6] 0.053 | givinostat -0.047 | barasertib 0.031

APOA1 (UniProt P02647)
inactive: [1] -0.113 | [2] -0.001 | [3] -0.019 | [4] 0.063 | Nexturastat A -0.132 | vemurafenib 0.12 | [5] -0.268 | [6] -0.051 | givinostat -0.073 | barasertib 0.017

ANKRD54 (UniProt Q6NXT1)
inactive: [1] -0.021 | [2] 0.004 | [3] 0.029 | [4] 0.124 | Nexturastat A 0.027 | vemurafenib 0 | [5] 0.03 | [6] -0.022 | givinostat -0.016 | barasertib 0.023

ANKRD46 (UniProt Q86W74)
inactive: [1] 0.054 | [2] 0.038 | [3] -0.037 | Nexturastat A -0.095 | vemurafenib -0.015 | [5] 0.055 | [6] -0.011 | givinostat 0.038 | barasertib 0.015

ARHGAP45 isoform 2 (UniProt Q92619)
inactive: [1] 0.069 | [2] -0.073 | [3] 0.01 | [4] -0.031 | Nexturastat A 0.042 | vemurafenib -0.045 | [5] 0.012 | [6] -0.178 | givinostat 0.007 | barasertib 0.051

ARAF (UniProt P10398)
inactive: [1] 0.063 | [2] -0.049 | [3] -0.069 | [4] -0.007 | Nexturastat A 0.003 | vemurafenib 0.064 | [5] 0.123 | [6] 0.019 | givinostat 0.029 | barasertib 0.074

ANKRD13A (UniProt Q8IZ07)
inactive: [1] 0.023 | [2] 0.051 | [3] -0.01 | [4] -0.159 | Nexturastat A 0.018 | vemurafenib -0.012 | [5] -0.033 | [6] 0.105 | givinostat -0.003 | barasertib 0.014

ANTKMT (UniProt Q9BQD7)
inactive: [1] -0.035 | [2] 0.182 | [4] 0.126 | Nexturastat A -0.115 | vemurafenib -0.059 | givinostat -0.078 | barasertib 0.019

ANKRD26 (UniProt Q9UPS8)
inactive: [1] -0.012 | [2] 0.098 | [3] 0.013 | vemurafenib 0 | [5] 0.102 | [6] -0.057

AP3S1 (UniProt Q92572)
inactive: [1] 0.02 | [2] 0.013 | [3] -0.02 | [4] 0.009 | Nexturastat A 0.094 | vemurafenib 0.022 | [5] 0.041 | [6] -0.022 | givinostat 0.032 | barasertib 0.044

AP5S1 (UniProt Q9NUS5)
inactive: [6] 0.045 | givinostat -0.195

ARID4B (UniProt Q4LE39)
inactive: [6] 0.102

— the supplement of paper PMC10849652
